PubChem BioAssay AID1259254 | NCATS | 2017
Screen: 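Genome-wide screen for genes that prevent DNA re-replication in cancer cells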 (primary screen). Cells: human HCT116 colorectal cancer cells. Reagents: single siRNA against human genes. Time to read-out: 3 days. Measured: 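Imaged Hoechst DNA stain sorts each cell into a cycle phase by DNA amount; per plate, G2 fraction set to 0% for non-targeting and 100% for GMNN siRNA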. Direction: G2 robust z-score: higher = more G2 cells, more excess DNA replication. Hit rule: 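An siRNA counts as active if its G2 robust z-score lies at least 5 MADs above the screen median; here such calls match roughly 38% of GMNN control or more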.
The deposit covers about 59,000 reagents; shown is an unselected part. About 1,550 of all reagents (2.6%) count as active. 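G2 share is only a proxy for re-replication; each gene was hit by three separate siRNAs, and active genes were retested.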 Reagents against one gene are numbered here. Not all columns of the deposit are shown. Not given: the amount of reagent.

BAALC #1: G2 robust z-score = 1.12; Outcome = inactive
BAALC #2: G2 robust z-score = 0.03; Outcome = inactive
BAALC #3: G2 robust z-score = 0.258; Outcome = inactive
IAH1 #1: G2 robust z-score = 0.0796; Outcome = inactive
IAH1 #2: G2 robust z-score = -0.123; Outcome = inactive
IAH1 #3: G2 robust z-score = -0.257; Outcome = inactive
ELOA #1: G2 robust z-score = -0.552; Outcome = inactive
ELOA #2: G2 robust z-score = 2.63; Outcome = inactive
ELOA #3: G2 robust z-score = 3.06; Outcome = inactive

Continued (3 carried over from the part before).
ELOA #1: G2 robust z-score = -0.552; Outcome = inactive
ELOA #2: G2 robust z-score = 2.63; Outcome = inactive
ELOA #3: G2 robust z-score = 3.06; Outcome = inactive
ERAL1 #1: G2 robust z-score = 1.24; Outcome = inactive
ERAL1 #2: G2 robust z-score = -0.8; Outcome = inactive
ERAL1 #3: G2 robust z-score = 0.222; Outcome = inactive
CD68 #1: G2 robust z-score = 0.719; Outcome = inactive
CD68 #2: G2 robust z-score = -0.839; Outcome = inactive
CD68 #3: G2 robust z-score = -0.317; Outcome = inactive
OR4D6 #1: G2 robust z-score = 0.386; Outcome = inactive
OR4D6 #2: G2 robust z-score = -0.771; Outcome = inactive
OR4D6 #3: G2 robust z-score = 0.451; Outcome = inactive
LAIR2 #1: G2 robust z-score = -0.227; Outcome = inactive
LAIR2 #2: G2 robust z-score = -1.42; Outcome = inactive
LAIR2 #3: G2 robust z-score = 1.31; Outcome = inactive
SEC14L1 #1: G2 robust z-score = 3.66; Outcome = inactive
SEC14L1 #2: G2 robust z-score = -0.254; Outcome = inactive
SEC14L1 #3: G2 robust z-score = 0.204; Outcome = inactive
